According to patent US20230242871A1, “GENERATION OF PRIMORDIAL GERM CELLS AND METHODS OF USING THE SAME” (The Board of Trustees of the Leland Stanfor Junior …, priority 2020, published 2023):
Where “and” joins values, the source holds several entries; their conditions need not be identical. Identical values can stand only once.

B1: DR3 (protein, UniProt Q93038 25-417, looked up)
Tumor necrosis factor …: QGGTRSPRCDCAGDFHKKIGLFCCRGCPAGHYLKAPCTEPCGNSTCLVCPQDTFLAWENHHNSECARCQACDEQASQVALENCSAVADTRCGCKPGWFVECQVSQCVSSSPFYCQPCLDCGALHRHTRLLCSRRDTDCGTCLPGFYEHGDGCVSCPTSTLGSCPERCAAVCGWRQMFWVQVLLAGLVVPLLLGATLTYTYRHCWPHKPLVTADEAGMEALTPPPATHLSPLDSAHTLLAPPDSSEKICTVQLVGNSWTPGYPETQEALCPQVTWSWDQLPSRALGPAAAPTLSPESPAGSPAMMLQPGPQLYDVMDAVPARRWKEFVRTLGLREAEIEAVEVEIGRFRDQQYEMLKRWRQQQPAGLGAVYAALERMGLDGCVEDLRSRLQRGP
B2: CD357 (protein, UniProt Q9Y5U5 26-241, looked up)
Tumor necrosis factor …: QRPTGGPGCGPGRLLLGTGTDARCCRVHTTRCCRDYPGEECCSEWDCMCVQPEFHCGDPCCTTCRHHPCPPGQGVQSQGKFSFGFQCIDCASGTFSGGHEGHCKPWTDCTQFGFLTVFPGNKTHNAVCVPGSPPAEPLGWLTVVLLAVAACVLLLTSAQLGLHIWQLRSQCMWPRETQLLLEVPPSTEDARSCQFPEEERGERSAEEKGRLGDLWV
B3: HVEM (protein, UniProt Q92956 39-283, looked up)
Tumor necrosis factor …: LPSCKEDEYPVGSECCPKCSPGYRVKEACGELTGTVCEPCPPGTYIAHLNGLSKCLQCQMCDPAMGLRASRNCSRTENAVCGCSPGHFCIVQDGDHCAACRAYATSSPGQRVQKGGTESQDTLCQNCPPGTFSPNGTLEECQHQTKCSWLVTKAGAGTSSSHWVWWFLSGSLVIVIVCSTVGLIICVKRRKPRGDVVKVIVSVQRKRQEAEGEATVIEALQAPPDVTTVAVEETIPSFTGRSPNH
B4: MERTK (protein, UniProt Q12866 21-999, looked up)
Tyrosine-protein kinase Mer: AITEAREEAKPYPLFPGPFPGSLQTDHTPLLSLPHASGYQPALMFSPTQPGRPHTGNVAIPQVTSVESKPLPPLAFKHTVGHIILSEHKGVKFNCSISVPNIYQDTTISWWKDGKELLGAHHAITQFYPDDEVTAIIASFSITSVQRSDNGSYICKMKINNEEIVSDPIYIEVQGLPHFTKQPESMNVTRNTAFNLTCQAVGPPEPVNIFWVQNSSRVNEQPEKSPSVLTVPGLTEMAVFSCEAHNDKGLTVSKGVQINIKAIPSPPTEVSIRNSTAHSILISWVPGFDGYSPFRNCSIQVKEADPLSNGSVMIFNTSALPHLYQIKQLQALANYSIGVSCMNEIGWSAVSPWILASTTEGAPSVAPLNVTVFLNESSDNVDIRWMKPPTKQQDGELVGYRISHVWQSAGISKELLEEVGQNGSRARISVQVHNATCTVRIAAVTRGGVGPFSDPVKIFIPAHGWVDYAPSSTPAPGNADPVLIIFGCFCGFILIGLILYISLAIRKRVQETKFGNAFTEEDSELVVNYIAKKSFCRRAIELTLHSLGVSEELQNKLEDVVIDRNLLILGKILGEGEFGSVMEGNLKQEDGTSLKVAVKTMKLDNSSQREIEEFLSEAACMKDFSHPNVIRLLGVCIEMSSQGIPKPMVILPFMKYGDLHTYLLYSRLETGPKHIPLQTLLKFMVDIALGMEYLSNRNFLHRDLAARNCMLRDDMTVCVADFGLSKKIYSGDYYRQGRIAKMPVKWIAIESLADRVYTSKSDVWAFGVTMWEIATRGMTPYPGVQNHEMYDYLLHGHRLKQPEDCLDELYEIMYSCWRTDPLDRPTFSVLRLQLEKLLESLPDVRNQADVIYVNTQLLESSEGLAQGSTLAPLDLNIDPDSIIASCTPRAAISVVTAEVHDSKPHEGRYILNGGSEEWEDLTSAPSAAVTAEKNSVLPGERLVRNGVSWSHSSMLPLGSSLPDELLFADDSSEGSEVLM
B5: NKp80 (protein, UniProt Q9NZS2 1-231, looked up)
Killer cell lectin-like …: MQDEERYMTLNVQSKKRSSAQTSQLTFKDYSVTLHWYKILLGISGTVNGILTLTLISLILLVSQGVLLKCQKGSCSNATQYEDTGDLKVNNGTRRNISNKDLCASRSADQTVLCQSEWLKYQGKCYWFSNEMKSWSDSYVYCLERKSHLLIIHDQLEMAFIQKNLRQLNYVWIGLNFTSLKMTWTWVDGSPIDSKIFFIKGPAKENSCAAIKESKIFSETCSSVFKWICQY
B6: CD111 (protein, UniProt Q15223 31-517, looked up)
Nectin-1: QVVQVNDSMYGFIGTDVVLHCSFANPLPSVKITQVTWQKSTNGSKQNVAIYNPSMGVSVLAPYRERVEFLRPSFTDGTIRLSRLELEDEGVYICEFATFPTGNRESQLNLTVMAKPTNWIEGTQAVLRAKKGQDDKVLVATCTSANGKPPSVVSWETRLKGEAEYQEIRNPNGTVTVISRYRLVPSREAHQQSLACIVNYHMDRFKESLTLNVQYEPEVTIEGFDGNWYLQRMDVKLTCKADANPPATEYHWTTLNGSLPKGVEAQNRTLFFKGPINYSLAGTYICEATNPIGTRSGQVEVNITEFPYTPSPPEHGRRAGPVPTAIIGGVAGSILLVLIVVGGIVVALRRRRHTFKGDYSTKKHVYGNGYSKAGIPQHHPPMAQNLQYPDDSDDEKKAGPLGGSSYEEEEEEEEGGGGGERKVGGPHPKYDEDAKRPYFTVDEAEARQDGYGDRTLGYQYDPEQLDLAENMVSQNDGSFISKKEWYV
B7: Tim-4 (protein, UniProt Q96H15 25-378, looked up)
T-cell immunoglobulin and …: ETVVTEVLGHRVTLPCLYSSWSHNSNSMCWGKDQCPYSGCKEALIRTDGMRVTSRKSAKYRLQGTIPRGDVSLTILNPSESDSGVYCCRIEVPGWFNDVKINVRLNLQRASTTTHRTATTTTRRTTTTSPTTTRQMTTTPAALPTTVVTTPDLTTGTPLQMTTIAVFTTANTCLSLTPSTLPEEATGLLTPEPSKEGPILTAESETVLPSDSWSSVESTSADTVLLTSKESKVWDLPSTSHVSMWKTSDSVSSPQPGASDTAVPEQNKTTKTGQMDGIPMSMKNEMPISQLLMIIAPSLGFVLFALFVAFLLRGKLMETYCSQKHTRLDYIGDSKNVLNDVQHGREDEDGLFTL
B8: TLT-2 (protein, UniProt Q5T2D2 19-321, looked up)
Trem-like transcript 2 protein: GPSADSVYTKVRLLEGETLSVQCSYKGYKNRVEGKVWCKIRKKKCEPGFARVWVKGPRYLLQDDAQAKVVNITMVALKLQDSGRYWCMRNTSGILYPLMGFQLDVSPAPQTERNIPFTHLDNILKSGTVTTGQAPTSGPDAPFTTGVMVFTPGLITLPRLLASTRPASKTGYSFTATSTTSQGPRRTMGSQTVTASPSNARDSSAGPESISTKSGDLSTRSPTTGLCLTSRSLLNRLPSMPSIRHQDVYSTVLGVVLTLLVLMLIMVYGFWKKRHMASYSMCSDPSTRDPPGRPEPYVEVYLI
B9: TM4SF20 (protein, UniProt Q53R12 1-229, looked up)
Transmembrane 4 L6 family …: MTCCEGWTSCNGFSLLVLLLLGVVLNAIPLIVSLVEEDQFSQNPISCFEWWFPGIIGAGLMAIPATTMSLTARKRACCNNRTGMFLSSLFSVITVIGALYCMLISIQALLKGPLMCNSPSNSNANCEFSLKNISDIHPESFNLQWFFNDSCAPPTGFNKPTSNDTMASGWRASSFHFDSEENKHRLIHFSVFLGLLLVGILEVLFGLSQIVIGFLGCLCGVSKRRSQIV
B10: CD112 (protein, UniProt Q92692 32-538, looked up)
Nectin-2: QDVRVQVLPEVRGQLGGTVELPCHLLPPVPGLYISLVTWQRPDAPANHQNVAAFHPKMGPSFPSPKPGSERLSFVSAKQSTGQDTEAELQDATLALHGLTVEDEGNYTCEFATFPKGSVRGMTWLRVIAKPKNQAEAQKVTFSQDPTTVALCISKEGRPPARISWLSSLDWEAKETQVSGTLAGTVTVTSRFTLVPSGRADGVTVTCKVEHESFEEPALIPVTLSVRYPPEVSISGYDDNWYLGRTDATLSCDVRSNPEPTGYDWSTTSGTFPTSAVAQGSQLVIHAVDSLFNTTFVCTVTNAVGMGRAEQVIFVRETPNTAGAGATGGIIGGIIAAIIATAVAATGILICRQQRKEQTLQGAEEDEDLEGPPSYKPPTPKAKLEAQEMPSQLFTLGASEHSPLKTPYFDAGASCTEQEMPRYHELPTLEERSGPLHPGATSLGSPIPVPPGPPAVEDVSLDLEDEEGEEEEEYLDKINPIYDALSYSSPSDSYQGKGFVMSRAMYV
B11: CD192 (protein, UniProt P41597 1-374, looked up)
C-C chemokine receptor type 2: MLSTSRSRFIRNTNESGEEVTTFFDYDYGAPCHKFDVKQIGAQLLPPLYSLVFIFGFVGNMLVVLILINCKKLKCLTDIYLLNLAISDLLFLITLPLWAHSAANEWVFGNAMCKLFTGLYHIGYFGGIFFIILLTIDRYLAIVHAVFALKARTVTFGVVTSVITWLVAVFASVPGIIFTKCQKEDSVYVCGPYFPRGWNNFHTIMRNILGLVLPLLIMVICYSGILKTLLRCRNEKKRHRAVRVIFTIMIVYFLFWTPYNIVILLNTFQEFFGLSNCESTSQLDQATQVTETLGMTHCCINPIIYAFVGEKFRSLFHIALGCRIAPLQKPVCGGPGVRPGKNVKVTTQGLLDGRGKGKSIGRAPEASLQDKEGA
B12: CD197 (protein, UniProt P32248 25-378, looked up)
C-C chemokine receptor type 7: QDEVTDDYIGDNTTVDYTLFESLCSKKDVRNFKAWFLPIMYSIICFVGLLGNGLVVLTYIYFKRLKTMTDTYLLNLAVADILFLLTLPFWAYSAAKSWVFGVHFCKLIFAIYKMSFFSGMLLLLCISIDRYVAIVQAVSAHRHRARVLLISKLSCVGIWILATVLSIPELLYSDLQRSSSEQAMRCSLITEHVEAFITIQVAQMVIGFLVPLLAMSFCYLVIIRTLLQARNFERNKAIKVIIAVVVVFIVFQLPYNGVVLAQTVANFNITSSTCELSKQLNIAYDVTYSLACVRCCVNPFLYAFIGVKFRNDLFKLFKDLGCLSQEQLRQWSSCRHIRRSSMSVEAETTTTFSP
B13: CD269 (protein, UniProt Q02223 1-184, looked up)
Tumor necrosis factor …: MLQMAGQCSQNEYFDSLLHACIPCQLRCSSNTPPLTCQRYCNASVTNSVKGTNAILWTCLGLSLIISLAVFVLMFLLRKINSEPLKDEFKNTGSGLLGMANIDLEKSRTGDEIILPRGLEYTVEECTCEDCIKSKPKVDSDHCFPLPAMEEGATILVTTKTNDYCKSLPAALSATEIEKSISAR

Tests used:
Experiment in all cases: High-throughput cell-surface marker screening (LEGENDScreen), %PE+
Assay type in all cases: cell-based, human
Conditions in all cases: percentage of cells bound to the PE-conjugated antibody (LEGENDScreen)
D3.5 SOX17-GFP+ PGCs = system: D3.5 SOX17-GFP+ PGCs
D3.5 SOX17-GFP- non-PGCs = system: D3.5 SOX17-GFP- non-PGCs
[1] = system: undifferentiated hPSC (D0)

Molecule	% PE+ in PGCs (D3.5 SOX17-GFP+ PGCs)	% PE+ in non-PGCs (D3.5 SOX17-GFP- non-PGCs)	% PE+ in H1 UD [1]
B1	0%	0%	0.2%
B2	0% and 0.002531%	4.767E-05% and 0%	0.69% and 0.68%
B3	0%	0.001214%	0.34%
B4	0.7119%	0.504%	99.8%
B5	0%	0.0001214%	0.23%
B6	0.64%	0.5127%	99.7%
B7	0%	4.261E-05%	0.37%
B8	0%	7.886E-05%	0.22%
B9	0%	0%	0.12%
B10	0.8468%	0.8217%	99.9%
B11	0%	0.0003137%	0.16%
B12	0.004315%	0.01304%	2.73%
B13	0%	3.387E-05%	0.12%
